# Results of single-concentration screens

The chains behind the UniProt entries cited, without tags or fusion partners.
UniProt I6X8D2, whole entry: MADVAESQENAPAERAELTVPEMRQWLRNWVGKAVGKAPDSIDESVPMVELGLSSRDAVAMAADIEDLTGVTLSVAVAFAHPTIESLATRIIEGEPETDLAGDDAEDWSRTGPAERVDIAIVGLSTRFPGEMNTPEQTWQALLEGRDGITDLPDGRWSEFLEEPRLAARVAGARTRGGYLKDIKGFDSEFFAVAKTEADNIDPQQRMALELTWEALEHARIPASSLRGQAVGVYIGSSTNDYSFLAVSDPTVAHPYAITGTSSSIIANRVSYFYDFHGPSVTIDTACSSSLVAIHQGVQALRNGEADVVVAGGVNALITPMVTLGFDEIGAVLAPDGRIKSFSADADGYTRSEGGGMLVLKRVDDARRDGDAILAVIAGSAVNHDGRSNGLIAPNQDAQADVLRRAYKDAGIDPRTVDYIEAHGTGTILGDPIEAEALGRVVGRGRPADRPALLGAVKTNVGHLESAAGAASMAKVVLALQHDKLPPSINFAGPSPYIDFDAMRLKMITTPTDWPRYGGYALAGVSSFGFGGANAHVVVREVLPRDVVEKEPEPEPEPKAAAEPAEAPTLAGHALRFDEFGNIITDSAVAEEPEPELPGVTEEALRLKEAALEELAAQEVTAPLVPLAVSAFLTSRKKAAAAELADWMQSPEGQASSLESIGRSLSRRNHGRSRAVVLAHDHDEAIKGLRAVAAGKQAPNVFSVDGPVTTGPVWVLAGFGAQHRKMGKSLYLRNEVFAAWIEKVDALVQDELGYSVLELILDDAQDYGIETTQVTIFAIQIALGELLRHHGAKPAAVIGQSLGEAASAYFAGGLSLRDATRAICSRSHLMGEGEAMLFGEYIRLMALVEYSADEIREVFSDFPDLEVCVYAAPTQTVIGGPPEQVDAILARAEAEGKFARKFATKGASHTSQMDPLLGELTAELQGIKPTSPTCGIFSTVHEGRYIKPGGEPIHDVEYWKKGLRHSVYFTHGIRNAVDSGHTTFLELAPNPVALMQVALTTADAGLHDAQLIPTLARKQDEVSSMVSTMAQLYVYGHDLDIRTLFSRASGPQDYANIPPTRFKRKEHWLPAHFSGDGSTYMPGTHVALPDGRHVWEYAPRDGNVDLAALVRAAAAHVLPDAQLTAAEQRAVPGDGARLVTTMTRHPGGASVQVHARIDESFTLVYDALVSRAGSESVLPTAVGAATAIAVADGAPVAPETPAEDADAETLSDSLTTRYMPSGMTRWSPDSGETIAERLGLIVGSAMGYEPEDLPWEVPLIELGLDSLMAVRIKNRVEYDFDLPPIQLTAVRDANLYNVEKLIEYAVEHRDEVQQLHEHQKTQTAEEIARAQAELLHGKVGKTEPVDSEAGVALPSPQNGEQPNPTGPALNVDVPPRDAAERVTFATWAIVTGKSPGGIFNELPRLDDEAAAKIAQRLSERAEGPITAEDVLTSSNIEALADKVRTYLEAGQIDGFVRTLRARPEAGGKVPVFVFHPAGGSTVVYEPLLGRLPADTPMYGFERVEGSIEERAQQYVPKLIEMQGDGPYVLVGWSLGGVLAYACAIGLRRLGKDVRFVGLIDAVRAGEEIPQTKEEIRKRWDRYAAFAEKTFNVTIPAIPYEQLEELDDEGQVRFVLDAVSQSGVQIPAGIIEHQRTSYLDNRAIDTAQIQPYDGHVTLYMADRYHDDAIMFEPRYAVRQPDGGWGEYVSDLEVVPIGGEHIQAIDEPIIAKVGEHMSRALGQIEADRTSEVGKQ

Data taken from ChEMBL document CHEMBL3988442, “University of Dundee, Small-Polar-MMV Screening Library” (2021).

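Polyketide synthase Pks13, Mycobacterium tuberculosis (UniProt I6X8D2). Enzyme assay of the thioesterase domain of polyketide synthase 13; the read-out is not stated. Compounds at 30 µM. The record gives no direction; the compounds picked for IC50 retests had high values, so higher reads as stronger inhibition. Size under these conditions: about 67,000 compounds, about 300 of them at 50% or above in at least one test.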

Values are the deposited “Percent Effect”, in %.
How 0% and 100% were set is not recorded. Most values in the screen are low, and negative values occur.
The compounds are a random part of those screened.

compound	effect
CC(C)n1cc(S(=O)(=O)N2CCCC(N3CCCCC3)C2)cn1 (configuration not stated)	-15.41
CCN1CCN(C)C(=O)C12CCN(Cc1ccsc1)CC2	-18.33
COC1COC2(CCN(Cc3ccc4c(c3)OCO4)CC2)C1 (configuration not stated)	-21.37
Cc1nccn1CCC(=O)N1CCCN(CCCc2ccccc2)CC1	-7.256
Cc1cccc(CN2C[C@@H]3CN(C(=O)c4conc4C)C[C@@H]3C2=O)c1	-29.92
CN(CCc1cccs1)C(=O)Nc1cccc(S(C)(=O)=O)c1	-36.27
Cc1cnn(C(C)C2CC2)c1NC(=O)c1ccncc1 (configuration not stated)	-2.102
Cc1nc(C)n(CC2CCCN2Cc2ccn(-c3ccccc3)n2)n1 (configuration not stated)	-9.926
Cc1noc(CN(C)CC(c2cccs2)N2CCOCC2)n1 (configuration not stated)	-6.302
CCn1ccc(-c2cc(NCCCOc3ccccc3C)nc(C)n2)n1	-32.25
O=C(c1ccoc1)N1CCC(Nc2cccnn2)CC1	-12.33
Cc1ncccc1OC1(C(=O)NCCNc2ccccc2)CCNCC1	-14.45
O=c1[nH]c2ccccc2c2c1CCO2	-1.241
CS(=O)(=O)c1ccc(-c2c[nH]c([C@@H]3COCCN3)n2)cc1	-26.98
CSc1nccc(-c2cccc(-c3ccn(CC4COCCO4)n3)c2)n1 (configuration not stated)	-33.92
O=C(NCCNc1ncccn1)N1CC=C(c2ccccc2)CC1	1.799
O=C(c1ccc2c(c1)OCO2)N1CCCSCC1CN1CCCC1 (configuration not stated)	-10.99
CCCNC(=O)N1CCC(c2nnc(Cn3cccn3)n2C2CC2)CC1	-4.966
Cc1ccc(CNC(=O)c2ccc(=O)n(C)n2)c(OCC2CC2)c1	-11.87
CCc1cc(N2CCC(NCCSc3nnnn3C)CC2)nc(C)n1	3.064
Cc1nn(C)c(C)c1NC(=O)CN1CCc2c(nc(C3CC3)n2C)C1	-5.967
c1csc(-c2nc(CN3CCN(c4cnccn4)CC3)co2)c1	-15.46
Cc1nn(C)cc1CN(Cc1ccccn1)Cc1ccccc1Cl	-0.9647
CCc1n[nH]c(C2CN(Cc3nccn3CC)CCO2)n1 (configuration not stated)	-24.67
CNC(=O)C1CCCCN1C(=O)c1sc(-c2ccc(C)o2)nc1C (configuration not stated)	4.784
Cn1cccc1C(=O)NC(C)(C(N)=O)c1cccc(Cl)c1 (configuration not stated)	-1.712
Cc1nc(CN2CCC3(CCCN(Cc4cnn(C)c4)C3)C2=O)cs1 (configuration not stated)	-1.744
O=C(c1cccc(Cl)c1)N1CC[C@H]2[C@H]1CCN2CC1CC1	-7.923
CNC(=O)[C@H]1C[C@@H]2CN(C(=O)c3ccncc3F)C[C@@H]2N1C	-2.153
Cc1nc(C)n(CC(=O)N2CCCC(c3cc4ccccc4cn3)C2)n1 (configuration not stated)	-0.2374
Cc1noc(C2(C)CCCN(C(=O)C(C)C)C2)n1 (configuration not stated)	3.99
COCCN1CCN(c2cc(OC)ncn2)Cc2ccc(C)nc21	-9.918
c1cnc(Nc2cc(CCC3CCCNC3)ccn2)cn1 (configuration not stated)	6.019
O=C(c1ccnc(C2CCNCC2)c1)N1CCCOCC1	-2.575
O=C(NCCn1ccnc1)c1ccn(-c2ccc(F)cc2)n1	-40.55
CSCC(=O)NC1CC(=O)N(CCc2ccccc2)C1 (configuration not stated)	3.167
O=C(c1cnc(-c2cnccn2)s1)N1CCCC(n2cccn2)C1 (configuration not stated)	-3.86
Cc1ccccc1C(C(=O)N1CCN(C(=O)c2ccc[nH]2)CC1)N(C)C (configuration not stated)	-17.91
Cc1cc(CN2CC3(CCN(C(=O)C4CC4)CC3)CC2C(=O)O)oc1C (configuration not stated)	-23.93
O=C1CCCN1CCCN1CCCC(Cn2cncn2)C1 (configuration not stated)	8.345
CCN(CC1CCOCC1)C(=O)C1CC(=O)N(Cc2cccnc2)C1 (configuration not stated)	1.115
Cn1nc(C2CCCN(C(=O)CO)C2)cc1O (configuration not stated)	-22.82
O=C(Cn1ccc2ccccc21)NCc1cc(N2CCOCC2)ncn1	-28.96
CC(C)(C)c1cc(CN2C[C@H]3CC[C@@H]2CN(Cc2ccccn2)C3)n[nH]1	-15.33
CC(=O)N1CCC(Cc2cncc(-c3c(C)n[nH]c3C)n2)C1 (configuration not stated)	8.06
CCc1ccc(CN2CCN(c3cccc(OC)c3)C(=O)C2)nc1	-5.274
O=c1cc(Cn2cncn2)nc2n1CCCN(Cc1ccc(F)cc1)C2	-8.796
COCCNC(=O)C1CN(C(N)=O)Cc2ccnn2C1 (configuration not stated)	-25.4
CCCc1noc(CS(=O)(=O)c2cccc(OC)c2)n1	-6.263
Cc1nc(C)c(C(=O)N2CCCC2(C)C(=O)NC2CCCC2)s1 (configuration not stated)	-1.899
Cc1cnn(C2CCCN(C(=O)c3ccc(Cn4ccnc4)cc3)C2)c1 (configuration not stated)	-32.44
Cc1nnc(SCCC(=O)N(C)Cc2c(F)cccc2Cl)[nH]1	-9.679
CS(=O)(=O)c1ccccc1-n1cc(NC(=O)CC2C=CCC2)cn1 (configuration not stated)	-9.168
COc1ccc(CNCc2cc(Br)c3c(c2)OCO3)cc1	-16
Cn1c(=O)n(C)c2nc(Cl)c(CC(=O)c3ccccc3)n2c1=O	-4.921
Cc1ccc(-c2nnc(CN3CCOCC(CO)C3)o2)n1C (configuration not stated)	-2.38
Cn1nc(Cn2ccnc2)c2c1CN(c1ncccn1)C2	-104.9
Cc1occc1C(=O)N1CCC[C@]2(C[C@@H](OCc3ccncc3)CO2)C1	-14.59
O=C(c1n[nH]cc1Cl)N1CCOC(Cc2cccc(C(F)(F)F)c2)C1 (configuration not stated)	-25.02
CC(C)c1noc(CCNC(=O)N2CCC(O)(C(F)(F)F)C2)n1 (configuration not stated)	-2.21
CCOCCn1nc(C)cc1C(=O)N1CCC2(CC1)[C@H](O)C[C@@H]2OCC	19.75
O=C1CCCCN1CSc1nnnn1-c1ccc(Cl)cc1	-20.79
CN1CCOC(C(=O)N2CCC3(CCCCC3)C2)C1 (configuration not stated)	-35.91
COCCNC(=O)Cn1cc(NC(=O)c2cc(Cl)c(Cl)n2C)cn1	-18.69
CS(=O)(=O)N1CCCc2sc(C(=O)NC3CC3)nc21	-11.9
O=C1CC(c2ccncc2)C2(CCN(CC3CC3)CC2)N1 (configuration not stated)	-32.12
CCCc1nc(C(=O)N2CCCn3nc(CCC(=O)O)cc3C2)cs1	-9.664
COc1cc(OC)cc(C2(O)CCN(Cc3nc(C)c(C)o3)CC2)c1	-0.06731
c1csc(CN2CCCN(c3ncnc4[nH]ccc34)CC2)c1	-15.8
CC(C)[C@@H]1CN(C2CCN(Cc3ccccc3)CC2)C[C@H]1NS(C)(=O)=O	-28.35
CCn1c(C2CCCN(Cc3cc(C)cc(C)c3)C2)nn(C)c1=O (configuration not stated)	4.358
CCc1c(C(=O)N2CCN(c3cnccn3)CC2)cnn1C(C)(C)C	-15.84

Some entries from above, unchanged:

compound	effect
CC(C)n1cc(S(=O)(=O)N2CCCC(N3CCCCC3)C2)cn1 (configuration not stated)	-15.41
c1cnc(Nc2cc(CCC3CCCNC3)ccn2)cn1 (configuration not stated)	6.019
CS(=O)(=O)c1ccccc1-n1cc(NC(=O)CC2C=CCC2)cn1 (configuration not stated)	-9.168
CN1CCOC(C(=O)N2CCC3(CCCCC3)C2)C1 (configuration not stated)	-35.91
Cn1nc(Cn2ccnc2)c2c1CN(c1ncccn1)C2	-104.9
COCCNC(=O)Cn1cc(NC(=O)c2cc(Cl)c(Cl)n2C)cn1	-18.69